Test results from PubChem BioAssay AID651640 (Broad Institute, 2012).
Hit rate of the full screen: of about 350,000 compounds, about 6,000 (1.7%) were called active. This list was built around the results that the source calls inconclusive (neither active nor inactive); the mix of calls is not that of the screen. Cut-off read from the data, not from the text of the source: active = CPE inhibition above about 20% (passing the limit was not always enough); inconclusive = no clear call, values can overlap the other calls; tested in BHK-21 cells.

Test: protection of cells from dengue 2 killing – plate reader, single concentration, primary screen (AID 651640);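 note: 0% = median of neutral control wells and 100% = median of positive control wells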
Details: DENV2-infected cells, cytopathic effect rescue, at 9.99 µM, active compounds read high

Compound | CPE inhibition
Cc1ccc(C(=O)Nc2cccc(NC(=O)c3ccc(C)cc3)n2)cc1 | inconclusive: 43.6%
O=C1NC(c2ccccc2)c2c(-c3ccccc3)n[nH]c21 (configuration not stated) | inactive: -10.5%
COc1ccc2[nH]cc(S(=O)(=O)c3ccc(F)cc3)c(=O)c2c1 | inconclusive: 37.5%
C[C@H]1CN([C@@H](C)CO)C(=O)c2cccc(NC(=O)c3cnccn3)c2O[C@@H]1CN(C)C(=O)Nc1ccc(C(F)(F)F)cc1 | inconclusive: 48.2%
O=C(/C=C/c1ccc(F)cc1)c1cc(Br)ccc1O | inactive: 2.71%
CNC(=O)C[C@@H]1CC[C@@H]2[C@H](COC[C@@H](O)CN2C(=O)Nc2cccc(OC)c2)O1 | inactive: 8.3%
O=C(Nc1ccccc1F)N1CC(=O)N2[C@H](C1)[C@@H](c1ccc(-c3cccnc3)cc1)[C@@H]2CO | inactive: 0.739%
CCCCn1c(N)c(N(Cc2ccccc2OC)C(=O)c2ccc([N+](=O)[O-])s2)c(=O)[nH]c1=O | inconclusive: 51.6%
NC(=O)C1CCN(CC(O)COc2ccc(-c3ccccc3)cc2)CC1 (configuration not stated) | active: 49.7%
O=C1N[C@@H](Cc2ccccc2)COCn2nncc2CC[C@@H]1Cc1ccccc1 | inactive: 2.48%
Cc1ccc(S(=O)(=O)c2nc(-c3cccs3)oc2N2CCC(C(N)=O)CC2)cc1 | inconclusive: 41%
CS(=O)(=O)c1ccc2nc(NC(=O)c3cc(-c4ccccc4)nn3-c3ccccc3)sc2c1 | inactive: -7.43%
Cc1cc(C)cc(-c2nc(-c3ccncc3)no2)c1 | inconclusive: 57.8%
COc1ccccc1CNC(=O)C[C@@H]1CC[C@@H]2[C@H](COC[C@H](O)CN2Cc2ccc3c(c2)OCO3)O1 | inactive: 2.63%
Nc1nc2c(nnn2Cc2ccc(Cl)c(Cl)c2)c(=O)[nH]1 | inconclusive: 21.3%
O=C(C1CCOCC1)N1CC(=O)N2[C@H](C1)[C@@H](c1ccc(-c3ccccc3F)cc1)[C@@H]2CO | active: 23%
CN(C(=O)[C@H]1O[C@@H](n2cnc(C(N)=O)n2)[C@H](O)[C@@H]1O)c1ccccc1 | inactive: 6.23%
O=C(O)c1ccc(NCc2nc3ccccc3n2Cc2ccccc2)cc1 | inconclusive: 30.5%
CN(C)C(=O)c1cccc(-c2ccc3c(c2)[C@H]2[C@H](CCN2C(=O)Cc2ccccc2)[C@H](CO)N3)c1 | inconclusive: 39.6%
CCN1CCN(c2ccc(S(=O)(=O)N3CCOCC3)cc2NC(=O)c2ccc(C)cc2C)CC1 | inconclusive: 28.7%
CCOC(=O)N1CCN(S(=O)(=O)c2ccc(C(=O)N(CCN(C)C)c3nc4ccc(Cl)cc4s3)cc2)CC1 | inconclusive: 29.9%
CCSc1nc2c(c(=O)[nH]1)C(c1ccc(C)cc1)C1=C(CCCC1=O)N2 (configuration not stated) | inconclusive: 23.9%
Cc1noc(C)c1S(=O)(=O)Nc1ccc2c(c1)C(=O)N([C@H](C)CO)C[C@H](C)[C@@H](CN(C)Cc1ccc(C(=O)O)cc1)OCCCC[C@@H](C)O2 | inactive: 16%
CCOc1c2ccc(C(=O)NCCCCc3ccccc3)cc2nn1C | inconclusive: 32%

Compound | CPE inhibition
NC(=O)c1nsc(C(=O)N(c2ccccc2)C(C(=O)NC2CCCC2)c2ccc3ncccc3c2)c1N (configuration not stated) | active: 39.1%
CN(C)S(=O)(=O)c1ccc(S(=O)(=O)NCc2ccc3c(c2)OCO3)cc1 | inconclusive: 23.3%
O=C(C[C@H]1CC[C@@H]2[C@H](COC[C@@H](O)CN2C(=O)Nc2ccc(Cl)c(Cl)c2)O1)NCc1ccc(Cl)cc1 | inactive: -7.12%
C[C@@H]1CCCCO[C@H](CN(C)S(=O)(=O)c2cccs2)[C@@H](C)CN([C@H](C)CO)C(=O)c2cc(NS(=O)(=O)c3ccccc3)ccc2O1 | inconclusive: 47.4%
O=C(CN(Cc1ccccc1)S(=O)(=O)c1ccccc1)N/N=C/c1ccccc1[N+](=O)[O-] | inactive: -1.92%
Cc1noc(C)c1C(=O)OCC(=O)/C=C1/N(C)c2ccccc2C1(C)C | inconclusive: 25.7%
C[C@@H]1CN([C@@H](C)CO)S(=O)(=O)c2ccc(C#CCC3CCCC3)cc2O[C@@H]1CN(C)C | inactive: -3.23%
COc1cc(NC(=O)c2c(F)c(F)c(OC)c(F)c2F)ccc1NC(=O)c1cccs1 | inconclusive: 23.7%
O=C(C1CCCC1)N1CCCCN2[C@@H](CO)[C@H](c3ccc(-c4cccc(F)c4)cc3)[C@@H]2C1 | inconclusive: 21.8%
COc1ccc(OC)c(N(C(=O)c2ccco2)C(C(=O)NC2CCCC2)c2cc(OC)c(OC)c(OC)c2)c1 (configuration not stated) | inconclusive: 25.7%
O=C(Nc1nnc(-c2cccs2)o1)c1cc(-c2ccccc2)nc2ccccc12 | inconclusive: 44.1%
O=C(NNc1cc(N2CCCC2)nc(N2CCCC2)n1)c1ccc([N+](=O)[O-])cc1 | inactive: 3.49%
CN(C)C(=O)c1cc(C(=O)c2ccc(F)cc2F)c[nH]1 | inactive: -2.76%
CO[C@@H]1CN(C)C(=O)c2cc(NC(=O)Nc3ccccc3F)ccc2OC[C@@H](C)N(C(C)=O)C[C@H]1C | inactive: 13.8%
C[C@H]1CN([C@@H](C)CO)C(=O)c2cc(NS(=O)(=O)c3cn(C)cn3)ccc2O[C@@H]1CN(C)Cc1ccc(C(=O)Nc2ccccc2N)cc1 | inactive: -1.47%
COC(=O)c1ccc(COC(=O)Cc2n[nH]c(=O)c3ccccc23)cc1 | inconclusive: 22.5%
O=c1c2ccccc2sc2c(CO)ccc(NCCN3CCCCC3)c12 | inactive: 13.1%
O=C(O)Cn1nc(-c2ccccc2)cc1-c1ccccc1 | active: 80.1%
COc1ccc(S(=O)(=O)N2CCN(CC(=O)Nc3cc(Cl)ccc3Cl)CC2)cc1 | inconclusive: 50.3%
CCOC(=O)c1cc(-c2cccnc2)nn1-c1ccccc1C | inactive: -3.04%
O=C(c1ccc2nccnc2c1)N1CCN(c2ccccc2)CC1 | active: 35.4%
CCCN(C)C[C@H]1OCCCC[C@H](C)Oc2ccc(NS(=O)(=O)c3ccc(OC)cc3)cc2C(=O)N([C@@H](C)CO)C[C@H]1C | inconclusive: 22.7%
C[C@@H]1CN([C@@H](C)CO)C(=O)c2cc(NC(=O)CCN3CCOCC3)ccc2O[C@H]1CN(C)Cc1ccncc1 | inconclusive: 23.1%
